Data as given in PubChem BioAssay AID504774 (Drosophila RNAi Screening Center, 2011).
Purpose: 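Genes required for cells to withstand methyl methanesulphonate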 (primary screen). Cells: Drosophila Kc167 cells. Reagent: long dsRNA against Drosophila genes, about 0.25 µg dsRNA per well. Time to read-out: about 6 days: 3 days knock-down, then 3 days with or without MMS. Treatment: methyl methanesulphonate 0.004% (w/v) for 3 days after knock-down. Detection: 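Viability in wells given MMS, read as ATP luminescence, normalised by quantiles plate by plate and averaged across replicates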. Scale: mean viability with MMS and viability with MMS: higher = more surviving cells after MMS.
The screen tested about 23,000 reagents; shown is a random part of those that have a named target and a result. 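Values are quantile-normalised luminescence on an arbitrary scale; higher means more cells surviving MMS.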 A plus sign joins genes that one reagent is predicted to hit. Further read-outs or replicates are left out here.

no.	Target gene	DRSC id	mean viability with MMS	viability with MMS, replicate 1
1	mthl5	DRSC16155	3.41e6	3.93e6
2	Task6	DRSC16530	3.70e6	4.22e6
3	CG14983	DRSC08441	3.65e6	4.12e6
4	Spn100A	DRSC14596	3.57e6	4.04e6
5	cDIP	DRSC14267	3.59e6	4.12e6
6	CG8136	DRSC16385	3.68e6	4.13e6
7	TwdlF	DRSC12225	3.63e6	4.03e6
8	heca	DRSC16964	3.22e6	3.59e6
9	heca	DRSC22990	3.54e6	3.94e6
10	CG9130 + CG9133	DRSC08624	3.62e6	3.84e6
11	CG9130 + CG9133	DRSC08625	3.62e6	4.10e6
12	CG9130 + CG9133	DRSC22010	3.62e6	4.11e6
13	CG11885	DRSC00329	1.79e6	4.02e6
14	Cyp309a1	DRSC00747	3.48e6	3.98e6
15	Vang	DRSC07570	3.67e6	4.12e6
16	Coa7	DRSC20967	3.34e6	3.76e6
17	CG31659	DRSC00760	3.50e6	3.95e6
18	CG14770	DRSC17947	3.49e6	3.90e6
19	Zn72D	DRSC11318	3.54e6	4.11e6
20	Fas1	DRSC16669	3.60e6	4.06e6
21	Lcp65Ad	DRSC11211	3.65e6	4.11e6
22	CG46298	DRSC06222	3.34e6	3.81e6
23	TwdlH	DRSC14735	3.65e6	4.14e6
24	Arpc5	DRSC00730	3.44e6	3.81e6
25	CR33328 (retired record)	DRSC22954	3.57e6	4.05e6
26	Cap-D2	DRSC15401	3.46e6	3.86e6
27	Toll-7	DRSC07563	3.63e6	4.08e6
28	inaF-B + inaF-D + inaF-C + 1 more	DRSC20342	3.46e6	3.93e6
29	Dhc62B	DRSC08655	3.52e6	3.99e6
30	CG16903	DRSC18561	3.28e6	3.80e6
31	CG8323	DRSC07149	3.36e6	3.91e6
32	TrpRS-m	DRSC10848	3.49e6	3.96e6
33	CG31016	DRSC21359	3.78e6	4.21e6
34	CG12934	DRSC06247	3.31e6	3.74e6
35	CG9175	DRSC03153	3.25e6	3.46e6
36	HP6	DRSC00471	3.41e6	3.81e6
37	CG12715	DRSC19492	3.49e6	3.95e6
38	CG33012	DRSC06287	3.68e6	4.24e6
39	CG33012	DRSC06288	3.77e6	4.28e6
40	e	DRSC16936	3.59e6	4.17e6
41	CG30270	DRSC22890	3.45e6	3.98e6
42	aos	DRSC11323	3.49e6	4.00e6
43	bocks	DRSC16489	3.55e6	4.12e6
44	SH3PX1	DRSC11139	3.55e6	3.93e6
45	CG33922	DRSC00050	3.64e6	4.02e6
46	puf	DRSC15875	3.22e6	3.63e6
47	puf	DRSC23167	3.75e6	4.27e6
48	Ada2a	DRSC16206	3.61e6	4.04e6
49	Ada2a	DRSC21598	2.74e6	3.65e6
50	CR33319	DRSC01826	3.57e6	4.02e6
51	CG3776	DRSC04417	2.94e6	3.69e6
52	CG4036	DRSC02735	3.72e6	4.33e6
53	tim	DRSC00841	3.62e6	4.28e6
54	CG33773	DRSC14032	3.51e6	3.92e6
55	RpL34a	DRSC15964	3.55e6	3.92e6
56	CG1075 (retired record)	DRSC12144	3.65e6	4.11e6
57	Membrin	DRSC10448	3.70e6	4.39e6
58	amrt	DRSC19378	3.52e6	4.00e6
59	CG8617	DRSC07223	3.42e6	3.83e6
60	CG12729	DRSC17884	3.57e6	4.07e6
61	CG14478	DRSC06450	3.52e6	4.00e6
62	Chrac-16	DRSC20343	3.30e6	3.76e6
63	Art7	DRSC04588	3.59e6	4.01e6
64	Hasp	DRSC02022	3.66e6	3.93e6
65	CG32040	DRSC08981	3.49e6	3.95e6
66	CG32040	DRSC22459	3.49e6	3.98e6
67	CG13700	DRSC10049	3.61e6	4.13e6
68	CG13334	DRSC06369	3.47e6	4.09e6

6 neighbouring records already listed, quoted:
no.	Target gene	DRSC id	mean viability with MMS	viability with MMS, replicate 1
45	CG33922	DRSC00050	3.64e6	4.02e6
46	puf	DRSC15875	3.22e6	3.63e6
47	puf	DRSC23167	3.75e6	4.27e6
48	Ada2a	DRSC16206	3.61e6	4.04e6
49	Ada2a	DRSC21598	2.74e6	3.65e6
50	CR33319	DRSC01826	3.57e6	4.02e6
